# From doi:10.1101/566430
# Sequences of proteins named here, by UniProt entry; tags and fusion partners are left off. A change or cut given only in a name is not applied to a line headed by its entry.
# UniProt P31749, whole entry: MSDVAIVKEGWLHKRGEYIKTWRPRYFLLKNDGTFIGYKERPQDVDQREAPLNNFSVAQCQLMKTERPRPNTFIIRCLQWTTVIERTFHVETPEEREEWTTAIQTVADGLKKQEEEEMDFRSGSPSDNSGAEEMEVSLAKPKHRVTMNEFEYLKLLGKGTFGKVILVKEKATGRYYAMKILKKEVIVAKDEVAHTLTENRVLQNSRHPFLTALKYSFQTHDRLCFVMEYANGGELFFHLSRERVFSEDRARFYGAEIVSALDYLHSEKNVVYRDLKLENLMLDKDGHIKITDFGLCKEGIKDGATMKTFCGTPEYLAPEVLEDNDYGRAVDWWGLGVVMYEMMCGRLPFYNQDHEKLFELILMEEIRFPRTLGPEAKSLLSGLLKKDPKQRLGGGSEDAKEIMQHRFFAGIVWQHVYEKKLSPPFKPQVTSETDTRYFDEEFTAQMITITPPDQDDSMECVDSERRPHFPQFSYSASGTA
# Where two headings read alike, the source gives them in different places. These are yes or no findings as the source states them, for the method shown. Binding seen in cells or lysates may run through a third protein. Some binding calls cover weakened binding; strength is not graded here. Tags and fused reporters may be left off the sequences shown.
# T1: 3'-Phosphoinositide-dependent kinase-1, wild type, full length (eGFP-myc-PDK1 and HA-PDK1-mCherry) (human), O15530
# T1 chain: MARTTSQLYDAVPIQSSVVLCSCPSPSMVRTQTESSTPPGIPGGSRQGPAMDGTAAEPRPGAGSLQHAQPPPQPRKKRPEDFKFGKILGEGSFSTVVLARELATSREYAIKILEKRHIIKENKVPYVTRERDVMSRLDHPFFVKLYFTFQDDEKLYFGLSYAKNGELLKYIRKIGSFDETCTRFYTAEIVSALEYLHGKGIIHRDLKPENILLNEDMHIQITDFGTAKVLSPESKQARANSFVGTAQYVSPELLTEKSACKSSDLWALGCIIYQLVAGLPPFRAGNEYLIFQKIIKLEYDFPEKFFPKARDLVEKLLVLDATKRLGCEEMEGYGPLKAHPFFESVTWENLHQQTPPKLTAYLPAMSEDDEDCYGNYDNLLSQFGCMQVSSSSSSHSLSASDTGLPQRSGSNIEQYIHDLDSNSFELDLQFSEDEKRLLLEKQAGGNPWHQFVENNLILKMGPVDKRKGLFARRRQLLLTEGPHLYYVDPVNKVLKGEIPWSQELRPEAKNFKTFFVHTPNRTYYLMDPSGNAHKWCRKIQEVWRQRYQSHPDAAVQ
# How the values were obtained:
# Assay in all cases: FRET or BRET
# [1] = molecular target: T1, 3'-Phosphoinositide-dependent kinase-1, …; conditions: remark: other sources report otherwise
# [2] = molecular target: mCherry-HA-PKB (Akt/PKB), P31749; conditions: remark: other sources report otherwise
# [3] = molecular target: T1, 3'-Phosphoinositide-dependent kinase-1, …; conditions: remark: other sources report otherwise
# [4] = molecular target: Isolated PH domain of PDK1, T513E (GFP- and mRFP-tagged) (human) (UniProt O15530)
# mCherry-HA-PKB (Akt/PKB) = mCherry-HA-PKB (Akt/PKB) (UniProt P31749)
# [5] = molecular target: PDK1 T513E, full length (GFP- and mCherry-tagged) (human) (UniProt O15530)
# [6] = molecular target: PDK1 T513E, full length (GFP- and mCherry-tagged) (human) (UniProt O15530); remark: listed apart in the source
# [7] = molecular target: PDK1 K465A, full length (eGFP-myc-PDK1 K465A and HA-PDK1-mCherry K465A) (human) (UniProt O15530)
# [8] = molecular target: PDK1 K465A, full length (eGFP-myc-PDK1 K465A and HA-PDK1-mCherry K465A) (human) (UniProt O15530); remark: listed apart in the source
# [9] = molecular target: PDK1 R466A/K467A, full length (eGFP-myc-PDK1 and HA-PDK1-mCherry, both R466A/K467A) (human) (UniProt O15530)
# [10] = molecular target: PDK1 R466A/K467A, full length (eGFP-myc-PDK1 and HA-PDK1-mCherry, both R466A/K467A) (human) (UniProt O15530); remark: listed apart in the source
# [11] = molecular target: Isolated PH domain of PDK1, wild type (eGFP-myc-PH^PDK1 and mRFP-myc-PH^PDK1) (human) (UniProt O15530)
binder,measurement,setting,value
"3'-Phosphoinositide-dependent kinase-1, wild type, full length (eGFP-myc-PDK1 and HA-PDK1-mCherry), O15530 1-556 (enzyme) MARTTSQLYDAVPIQSSVVLCSCPSPSMVRTQTESSTPPGIPGGSRQGPAMDGTAAEPRPGAGSLQHAQPPPQPRKKRPEDFKFGKILGEGSFSTVVLARELATSREYAIKILEKRHIIKENKVPYVTRERDVMSRLDHPFFVKLYFTFQDDEKLYFGLSYAKNGELLKYIRKIGSFDETCTRFYTAEIVSALEYLHGKGIIHRDLKPENILLNEDMHIQITDFGTAKVLSPESKQARANSFVGTAQYVSPELLTEKSACKSSDLWALGCIIYQLVAGLPPFRAGNEYLIFQKIIKLEYDFPEKFFPKARDLVEKLLVLDATKRLGCEEMEGYGPLKAHPFFESVTWENLHQQTPPKLTAYLPAMSEDDEDCYGNYDNLLSQFGCMQVSSSSSSHSLSASDTGLPQRSGSNIEQYIHDLDSNSFELDLQFSEDEKRLLLEKQAGGNPWHQFVENNLILKMGPVDKRKGLFARRRQLLLTEGPHLYYVDPVNKVLKGEIPWSQELRPEAKNFKTFFVHTPNRTYYLMDPSGNAHKWCRKIQEVWRQRYQSHPDAAVQ",binding,[1],binds
same,binding,[2],binds
same,binding,[3],binds
"Isolated PH domain of PDK1, T513E (GFP- and mRFP-tagged) (domain or fragment, UniProt O15530 404-556) LPQRSGSNIEQYIHDLDSNSFELDLQFSEDEKRLLLEKQAGGNPWHQFVENNLILKMGPVDKRKGLFARRRQLLLTEGPHLYYVDPVNKVLKGEIPWSQELRPEAKNFKEFFVHTPNRTYYLMDPSGNAHKWCRKIQEVWRQRYQSHPDAAVQ",binding,[4],binds
"PDK1 T513E, full length (GFP- and mCherry-tagged) (enzyme, UniProt O15530 1-556) MARTTSQLYDAVPIQSSVVLCSCPSPSMVRTQTESSTPPGIPGGSRQGPAMDGTAAEPRPGAGSLQHAQPPPQPRKKRPEDFKFGKILGEGSFSTVVLARELATSREYAIKILEKRHIIKENKVPYVTRERDVMSRLDHPFFVKLYFTFQDDEKLYFGLSYAKNGELLKYIRKIGSFDETCTRFYTAEIVSALEYLHGKGIIHRDLKPENILLNEDMHIQITDFGTAKVLSPESKQARANSFVGTAQYVSPELLTEKSACKSSDLWALGCIIYQLVAGLPPFRAGNEYLIFQKIIKLEYDFPEKFFPKARDLVEKLLVLDATKRLGCEEMEGYGPLKAHPFFESVTWENLHQQTPPKLTAYLPAMSEDDEDCYGNYDNLLSQFGCMQVSSSSSSHSLSASDTGLPQRSGSNIEQYIHDLDSNSFELDLQFSEDEKRLLLEKQAGGNPWHQFVENNLILKMGPVDKRKGLFARRRQLLLTEGPHLYYVDPVNKVLKGEIPWSQELRPEAKNFKEFFVHTPNRTYYLMDPSGNAHKWCRKIQEVWRQRYQSHPDAAVQ",binding,mCherry-HA-PKB (Akt/PKB),binds
same,binding,[5],binds
same,binding,[6],binds
"PDK1 K465A, full length (eGFP-myc-PDK1 K465A and HA-PDK1-mCherry K465A) (enzyme, UniProt O15530 1-556) MARTTSQLYDAVPIQSSVVLCSCPSPSMVRTQTESSTPPGIPGGSRQGPAMDGTAAEPRPGAGSLQHAQPPPQPRKKRPEDFKFGKILGEGSFSTVVLARELATSREYAIKILEKRHIIKENKVPYVTRERDVMSRLDHPFFVKLYFTFQDDEKLYFGLSYAKNGELLKYIRKIGSFDETCTRFYTAEIVSALEYLHGKGIIHRDLKPENILLNEDMHIQITDFGTAKVLSPESKQARANSFVGTAQYVSPELLTEKSACKSSDLWALGCIIYQLVAGLPPFRAGNEYLIFQKIIKLEYDFPEKFFPKARDLVEKLLVLDATKRLGCEEMEGYGPLKAHPFFESVTWENLHQQTPPKLTAYLPAMSEDDEDCYGNYDNLLSQFGCMQVSSSSSSHSLSASDTGLPQRSGSNIEQYIHDLDSNSFELDLQFSEDEKRLLLEKQAGGNPWHQFVENNLILKMGPVDARKGLFARRRQLLLTEGPHLYYVDPVNKVLKGEIPWSQELRPEAKNFKTFFVHTPNRTYYLMDPSGNAHKWCRKIQEVWRQRYQSHPDAAVQ",binding,[7],binds weakly
same,binding,[8],binds
"PDK1 R466A/K467A, full length (eGFP-myc-PDK1 and HA-PDK1-mCherry, both R466A/K467A) (enzyme, UniProt O15530 1-556) MARTTSQLYDAVPIQSSVVLCSCPSPSMVRTQTESSTPPGIPGGSRQGPAMDGTAAEPRPGAGSLQHAQPPPQPRKKRPEDFKFGKILGEGSFSTVVLARELATSREYAIKILEKRHIIKENKVPYVTRERDVMSRLDHPFFVKLYFTFQDDEKLYFGLSYAKNGELLKYIRKIGSFDETCTRFYTAEIVSALEYLHGKGIIHRDLKPENILLNEDMHIQITDFGTAKVLSPESKQARANSFVGTAQYVSPELLTEKSACKSSDLWALGCIIYQLVAGLPPFRAGNEYLIFQKIIKLEYDFPEKFFPKARDLVEKLLVLDATKRLGCEEMEGYGPLKAHPFFESVTWENLHQQTPPKLTAYLPAMSEDDEDCYGNYDNLLSQFGCMQVSSSSSSHSLSASDTGLPQRSGSNIEQYIHDLDSNSFELDLQFSEDEKRLLLEKQAGGNPWHQFVENNLILKMGPVDKAAGLFARRRQLLLTEGPHLYYVDPVNKVLKGEIPWSQELRPEAKNFKTFFVHTPNRTYYLMDPSGNAHKWCRKIQEVWRQRYQSHPDAAVQ",binding,[9],binds
same,binding,[10],binds
"Isolated PH domain of PDK1, wild type (eGFP-myc-PH^PDK1 and mRFP-myc-PH^PDK1) (domain or fragment, UniProt O15530 404-556) LPQRSGSNIEQYIHDLDSNSFELDLQFSEDEKRLLLEKQAGGNPWHQFVENNLILKMGPVDKRKGLFARRRQLLLTEGPHLYYVDPVNKVLKGEIPWSQELRPEAKNFKTFFVHTPNRTYYLMDPSGNAHKWCRKIQEVWRQRYQSHPDAAVQ",binding,[11],binds
